# Measured values from the supplement of paper PMC10032668.
# Sequences of proteins named here, by UniProt entry; tags and fusion partners are left off.
# KPNA3, O00505, UniProt O00505, whole entry: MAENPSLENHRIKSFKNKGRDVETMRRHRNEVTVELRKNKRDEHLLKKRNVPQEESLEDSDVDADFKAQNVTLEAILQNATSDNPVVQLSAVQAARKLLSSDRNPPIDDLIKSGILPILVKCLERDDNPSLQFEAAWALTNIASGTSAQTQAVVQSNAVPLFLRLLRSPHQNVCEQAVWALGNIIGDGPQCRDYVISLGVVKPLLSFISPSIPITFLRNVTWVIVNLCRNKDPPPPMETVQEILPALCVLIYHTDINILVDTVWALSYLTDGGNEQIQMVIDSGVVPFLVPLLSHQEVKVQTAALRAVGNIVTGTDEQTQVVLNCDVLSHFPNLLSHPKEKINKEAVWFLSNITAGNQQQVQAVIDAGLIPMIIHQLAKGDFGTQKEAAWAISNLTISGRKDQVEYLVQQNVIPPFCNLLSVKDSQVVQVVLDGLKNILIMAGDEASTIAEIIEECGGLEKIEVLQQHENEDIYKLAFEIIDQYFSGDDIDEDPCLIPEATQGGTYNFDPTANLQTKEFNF
# SRSF9, Q13242, UniProt Q13242, whole entry: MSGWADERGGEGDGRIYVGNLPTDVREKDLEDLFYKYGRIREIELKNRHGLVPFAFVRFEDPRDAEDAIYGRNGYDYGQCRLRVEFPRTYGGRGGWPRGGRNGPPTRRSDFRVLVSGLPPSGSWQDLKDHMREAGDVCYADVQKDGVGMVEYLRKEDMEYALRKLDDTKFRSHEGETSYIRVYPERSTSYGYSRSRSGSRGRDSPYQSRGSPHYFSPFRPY
# TUBB8, Q3ZCM7, UniProt Q3ZCM7, whole entry: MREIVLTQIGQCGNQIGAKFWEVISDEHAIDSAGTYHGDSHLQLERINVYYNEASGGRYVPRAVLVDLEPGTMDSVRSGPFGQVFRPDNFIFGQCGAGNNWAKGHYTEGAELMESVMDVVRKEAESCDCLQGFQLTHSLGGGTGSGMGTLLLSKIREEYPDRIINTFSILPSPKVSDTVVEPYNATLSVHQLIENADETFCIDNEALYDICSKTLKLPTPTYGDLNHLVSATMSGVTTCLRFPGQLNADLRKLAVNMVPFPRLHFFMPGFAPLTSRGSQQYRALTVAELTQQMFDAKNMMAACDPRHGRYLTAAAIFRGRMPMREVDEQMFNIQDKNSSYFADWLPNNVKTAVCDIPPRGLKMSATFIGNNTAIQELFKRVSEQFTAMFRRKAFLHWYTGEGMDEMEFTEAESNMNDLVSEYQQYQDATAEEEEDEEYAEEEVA
# ± gives the standard deviation of the averaged measurements. Some of the results follow. Only hits are listed; about a third recur on repeated control peptides.
# How the values were obtained:
# Assay in all cases: PRISMA enrichment of interactor (LFQ) in peptide spot vs all other peptide spots (log2 fold change); higher = stronger / more specific binding of the interactor to the peptide
# [1] = biological target: TRA2A, Q13595
# Protocol: (§1)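 PRISMA: 221 full-length sORF-encoded peptides (3-15 aa), plus SOS1/GLUT1 control peptides, were spot-synthesized on cellulose membranes in triplicate. Membranes were incubated with HEK293T lysate, and bound proteins were identified by LC-MS/MS with LFQ. Enrichment is the log2 fold change versus all other peptide spots; only significant interactors are listed (cutoff c=6, x0=2.8).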
# [2] = biological target: ZRANB2, O95218
# Protocol: as §1
# [3] = biological target: ANP32A, P39687
# Protocol: as §1
# [4] = biological target: ANP32B, Q92688
# Protocol: as §1
# [5] = biological target: ANP32E, Q9BTT0
# Protocol: as §1
# [6] = biological target: CCDC47, Q96A33
# Protocol: as §1
# [7] = biological target: CDC73, Q6P1J9
# Protocol: as §1
# [8] = biological target: CLSPN, Q9HAW4
# Protocol: as §1
# [9] = biological target: CTR9, Q6PD62
# Protocol: as §1
# [10] = biological target: DAP3, P51398
# Protocol: as §1
# [11] = biological target: GTF2E2, P29084
# Protocol: as §1
# [12] = biological target: GTF3C5, Q9Y5Q8
# Protocol: as §1
# [13] = biological target: HTATSF1, O43719
# Protocol: as §1
# [14] = biological target: KPNA3, O00505
# Protocol: as §1
# [15] = biological target: LARP1, Q6PKG0
# Protocol: as §1
# [16] = biological target: MRPL12, P52815
# Protocol: as §1
# [17] = biological target: MRPL37, Q9BZE1
# Protocol: as §1
# [18] = biological target: MRPL39, Q9NYK5
# Protocol: as §1
# [19] = biological target: MRPS31, Q92665
# Protocol: as §1
# [20] = biological target: MRPS5, P82675
# Protocol: as §1
# [21] = biological target: NAP1L1, P55209
# Protocol: as §1
# [22] = biological target: NAT10, Q9H0A0
# Protocol: as §1
# [23] = biological target: NPM3, O75607
# Protocol: as §1
# [24] = biological target: PAF1, Q8N7H5
# Protocol: as §1
# [25] = biological target: PHAX, Q9H814
# Protocol: as §1
# [26] = biological target: PPM1G, O15355
# Protocol: as §1
# [27] = biological target: PTCD3, Q96EY7
# Protocol: as §1
# [28] = biological target: RO60, P10155
# Protocol: as §1
# [29] = biological target: SART3, Q15020
# Protocol: as §1
# [30] = biological target: SMAP, O00193
# Protocol: as §1
# [31] = biological target: SRP19, P09132
# Protocol: as §1
# [32] = biological target: SUPT5H, O00267
# Protocol: as §1
# [33] = biological target: WDR43, Q15061
# Protocol: as §1
# [34] = biological target: CD2AP, Q9Y5K6
# Protocol: as §1
# [35] = biological target: CDK11B, P21127
# Protocol: as §1
# [36] = biological target: CTTN, Q14247
# Protocol: as §1
# [37] = biological target: DDX21, Q9NR30
# Protocol: as §1
# [38] = biological target: MOV10, Q9HCE1
# Protocol: as §1
# [39] = biological target: MRPL10, Q7Z7H8
# Protocol: as §1
# [40] = biological target: MRPL40, Q9NQ50
# Protocol: as §1
# [41] = biological target: MRPS18B, Q9Y676
# Protocol: as §1
# [42] = biological target: MRPS34, P82930
# Protocol: as §1
# [43] = biological target: MRPS35, P82673
# Protocol: as §1
# [44] = biological target: NAP1L4, Q99733
# Protocol: as §1
# [45] = biological target: NOB1, Q9ULX3
# Protocol: as §1
# [46] = biological target: NOC2L, Q9Y3T9
# Protocol: as §1
# [47] = substrate: PC, P11498
# Protocol: as §1
# [48] = biological target: PELP1, Q8IZL8
# Protocol: as §1
# [49] = biological target: RBM10
# Protocol: as §1
# [50] = biological target: RIOK1, Q9BRS2
# Protocol: as §1
# [51] = biological target: RPLP1, P05386
# Protocol: as §1
# [52] = biological target: SRSF1, Q07955
# Protocol: as §1
# [53] = biological target: SRSF10, O75494
# Protocol: as §1
# [54] = biological target: SRSF4, Q08170
# Protocol: as §1
# [55] = biological target: SRSF5, Q13243
# Protocol: as §1
# [56] = biological target: SRSF6, Q13247
# Protocol: as §1
# [57] = biological target: SRSF7, Q16629
# Protocol: as §1
# [58] = biological target: SRSF9, Q13242
# Protocol: as §1
# [59] = biological target: SUPT4H1, P63272
# Protocol: as §1
# [60] = biological target: MRPL17, Q9NRX2
# Protocol: as §1
# [61] = biological target: NUP43, Q8NFH3
# Protocol: as §1
# [62] = biological target: SDF4, Q9BRK5
# Protocol: as §1
# [63] = biological target: TUBB8, Q3ZCM7
# Protocol: as §1
binder,measurement,setting,value
MCEGRERERRAPQR [UGP2],PRISMA enrichment of interactor (log2),[1],4.06
same,PRISMA enrichment of interactor (log2),[2],5.15
MRKMAASKGG [ATPAF2],PRISMA enrichment of interactor (log2),[3],6.37
same,PRISMA enrichment of interactor (log2),[4],7.44
same,PRISMA enrichment of interactor (log2),[5],7.08
same,PRISMA enrichment of interactor (log2),[6],5.86
same,PRISMA enrichment of interactor (log2),[7],5.34
same,PRISMA enrichment of interactor (log2),[8],3.76
same,PRISMA enrichment of interactor (log2),[9],5.54
same,PRISMA enrichment of interactor (log2),[10],5.37
same,PRISMA enrichment of interactor (log2),[11],4.09
same,PRISMA enrichment of interactor (log2),[12],4.38
same,PRISMA enrichment of interactor (log2),[13],6.28
same,PRISMA enrichment of interactor (log2),[14],4.48
same,PRISMA enrichment of interactor (log2),[15],5.73
same,PRISMA enrichment of interactor (log2),[16],4.43
same,PRISMA enrichment of interactor (log2),[17],4.96
same,PRISMA enrichment of interactor (log2),[18],5.81
same,PRISMA enrichment of interactor (log2),[19],5.16
same,PRISMA enrichment of interactor (log2),[20],5.4
same,PRISMA enrichment of interactor (log2),[21],5.82
same,PRISMA enrichment of interactor (log2),[22],4.99
same,PRISMA enrichment of interactor (log2),[23],6.22
same,PRISMA enrichment of interactor (log2),[24],5.83
same,PRISMA enrichment of interactor (log2),[25],4.4
same,PRISMA enrichment of interactor (log2),[26],6.71
same,PRISMA enrichment of interactor (log2),[27],5.98
same,PRISMA enrichment of interactor (log2),[28],5.47
same,PRISMA enrichment of interactor (log2),[29],4.81
same,PRISMA enrichment of interactor (log2),[30],4.91
same,PRISMA enrichment of interactor (log2),[31],5.19
same,PRISMA enrichment of interactor (log2),[32],4.98
same,PRISMA enrichment of interactor (log2),[33],5.21
MRSARPRS [GATA6],PRISMA enrichment of interactor (log2),[3],6.46
same,PRISMA enrichment of interactor (log2),[4],7.39
same,PRISMA enrichment of interactor (log2),[5],7.14
same,PRISMA enrichment of interactor (log2),[34],6.24
same,PRISMA enrichment of interactor (log2),[35],5.26
same,PRISMA enrichment of interactor (log2),[36],5.01
same,PRISMA enrichment of interactor (log2),[37],5.71
same,PRISMA enrichment of interactor (log2),[13],7.14
same,PRISMA enrichment of interactor (log2),[15],5.79
same,PRISMA enrichment of interactor (log2),[38],5.39
same,PRISMA enrichment of interactor (log2),[39],5.9
same,PRISMA enrichment of interactor (log2),[40],5.13
same,PRISMA enrichment of interactor (log2),[41],4.54
same,PRISMA enrichment of interactor (log2),[19],6.23
same,PRISMA enrichment of interactor (log2),[42],5.47
same,PRISMA enrichment of interactor (log2),[43],6.13
same,PRISMA enrichment of interactor (log2),[20],5.56
same,PRISMA enrichment of interactor (log2),[21],6.059 ± 0.056
same,PRISMA enrichment of interactor (log2),[44],5.71
same,PRISMA enrichment of interactor (log2),[22],5.21
same,PRISMA enrichment of interactor (log2),[45],5.28
same,PRISMA enrichment of interactor (log2),[46],5.33
same,PRISMA enrichment of interactor (log2),[23],5.47
same,PRISMA enrichment of interactor (log2),[24],5.21
same,PRISMA enrichment of interactor (log2),[47],4.3
same,PRISMA enrichment of interactor (log2),[48],5.15
same,PRISMA enrichment of interactor (log2),[25],4.68
same,PRISMA enrichment of interactor (log2),[26],6.16
same,PRISMA enrichment of interactor (log2),[27],5.87
same,PRISMA enrichment of interactor (log2),[49],5.89
same,PRISMA enrichment of interactor (log2),[50],4.98
same,PRISMA enrichment of interactor (log2),[51],7.13
same,PRISMA enrichment of interactor (log2),[29],5.8
same,PRISMA enrichment of interactor (log2),[52],5.72
same,PRISMA enrichment of interactor (log2),[53],4.78
same,PRISMA enrichment of interactor (log2),[54],5.02
same,PRISMA enrichment of interactor (log2),[55],6.12
same,PRISMA enrichment of interactor (log2),[56],5.27
same,PRISMA enrichment of interactor (log2),[57],5.17
same,PRISMA enrichment of interactor (log2),[58],6
same,PRISMA enrichment of interactor (log2),[59],4.11
same,PRISMA enrichment of interactor (log2),[32],6.85
same,PRISMA enrichment of interactor (log2),[2],5.73
MSRSKRVSFPPGKCP [PELO],PRISMA enrichment of interactor (log2),[3],5.95
same,PRISMA enrichment of interactor (log2),[4],7.78
same,PRISMA enrichment of interactor (log2),[5],6.62
same,PRISMA enrichment of interactor (log2),[60],9.74
same,PRISMA enrichment of interactor (log2),[42],5.28
same,PRISMA enrichment of interactor (log2),[21],5.95
same,PRISMA enrichment of interactor (log2),[61],5.04
same,PRISMA enrichment of interactor (log2),[62],4.5
same,PRISMA enrichment of interactor (log2),[55],4.76
same,PRISMA enrichment of interactor (log2),[63],5.51
same,PRISMA enrichment of interactor (log2),[2],5.1

# Quoted at random: four entries already listed.
binder,measurement,setting,value
MRKMAASKGG [ATPAF2],PRISMA enrichment of interactor (log2),[11],4.09
same,PRISMA enrichment of interactor (log2),[13],6.28
MCEGRERERRAPQR [UGP2],PRISMA enrichment of interactor (log2),[1],4.06
MRKMAASKGG [ATPAF2],PRISMA enrichment of interactor (log2),[3],6.37
